PubChem BioAssay AID1508597 | Cure First, 2020
Here is one part, drawn at random, of about 2,100 reagents. 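Calls flag viability under 80% in either arm, not effects specific to rucaparib; the reference for percent is not stated.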 A reagent listed more than once was tested more than once; the source does not tell the runs apart. Not given: the 100% reference.

- Assay: 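Knock-downs altering ovarian cancer cell survival with or without PARP inhibitor rucaparib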 (primary screen)
- Cell system: human ovarian carcinoma lines grown from tumours: OCI-P5x (papillary serous) and OCI-C5x (clear cell)
- Reagent: siRNA pool against human genes, 1.25 pmol siRNA per well
- Time to read-out: 72 h or 96 h, depending on the cell culture
- Treatment: rucaparib 20 µM (about IC30) or vehicle, present until read-out
- Measurement: 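Luminescent ATP-based viability assay read 72 or 96 h after transfection, depending on culture, given as normalised percent viability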
- Direction: viability, normalised: higher = more viable cells remaining
- Hit rule: 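a well counts as a hit if its normalised viability is under 80 percent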
- Calls: active = viability under 80%; inactive = viability 80% or more

| viability, normalised (%) | activity call | Target gene | rucaparib or vehicle | cell line | technical replicate |
| --- | --- | --- | --- | --- | --- |
| 63.8 | active | PRG3 | Rucaparib | OCI-C5x (clear cell) | 1 |
| 64.7 | active | PRG3 | Rucaparib | OCI-C5x (clear cell) | 2 |
| 54.9 | active | PRG3 | Rucaparib | OCI-C5x (clear cell) | 3 |
| 54 | active | PRG3 | Rucaparib | OCI-P5x (serous) | 1 |
| 46.4 | active | PRG3 | Rucaparib | OCI-P5x (serous) | 2 |
| 56.5 | active | PRG3 | Rucaparib | OCI-P5x (serous) | 3 |
| 58.8 | active | PRG3 | Vehicle | OCI-C5x (clear cell) | 1 |
| 51.2 | active | PRG3 | Vehicle | OCI-C5x (clear cell) | 2 |
| 45.5 | active | PRG3 | Vehicle | OCI-C5x (clear cell) | 3 |
| 64.1 | active | PRG3 | Vehicle | OCI-P5x (serous) | 1 |
| 89.5 | inactive | PRG3 | Vehicle | OCI-P5x (serous) | 2 |
| 137 | inactive | PRG3 | Vehicle | OCI-P5x (serous) | 3 |
| 104 | inactive | RECQL5 | Rucaparib | OCI-C5x (clear cell) | 1 |
| 39.6 | active | RECQL5 | Rucaparib | OCI-C5x (clear cell) | 1 |
| 84.7 | inactive | RECQL5 | Rucaparib | OCI-C5x (clear cell) | 2 |
| 50.9 | active | RECQL5 | Rucaparib | OCI-C5x (clear cell) | 2 |
| 102 | inactive | RECQL5 | Rucaparib | OCI-C5x (clear cell) | 3 |
| 39 | active | RECQL5 | Rucaparib | OCI-C5x (clear cell) | 3 |
| 176 | inactive | RECQL5 | Rucaparib | OCI-P5x (serous) | 1 |
| 51.1 | active | RECQL5 | Rucaparib | OCI-P5x (serous) | 1 |
| 177 | inactive | RECQL5 | Rucaparib | OCI-P5x (serous) | 2 |
| 52.4 | active | RECQL5 | Rucaparib | OCI-P5x (serous) | 2 |
| 153 | inactive | RECQL5 | Rucaparib | OCI-P5x (serous) | 3 |
| 49 | active | RECQL5 | Rucaparib | OCI-P5x (serous) | 3 |
| 84.8 | inactive | RECQL5 | Vehicle | OCI-C5x (clear cell) | 1 |
| 42.9 | active | RECQL5 | Vehicle | OCI-C5x (clear cell) | 1 |
| 34.2 | active | RECQL5 | Vehicle | OCI-C5x (clear cell) | 2 |
| 99.8 | inactive | RECQL5 | Vehicle | OCI-C5x (clear cell) | 2 |
| 33.2 | active | RECQL5 | Vehicle | OCI-C5x (clear cell) | 3 |
| 77.2 | active | RECQL5 | Vehicle | OCI-C5x (clear cell) | 3 |
| 40.1 | active | RECQL5 | Vehicle | OCI-P5x (serous) | 1 |
| 160 | inactive | RECQL5 | Vehicle | OCI-P5x (serous) | 1 |
| 63.1 | active | RECQL5 | Vehicle | OCI-P5x (serous) | 2 |
| 135 | inactive | RECQL5 | Vehicle | OCI-P5x (serous) | 2 |
| 163 | inactive | RECQL5 | Vehicle | OCI-P5x (serous) | 3 |
| 80.2 | inactive | RECQL5 | Vehicle | OCI-P5x (serous) | 3 |

Already shown: an excerpt of the list.
| viability, normalised (%) | activity call | Target gene | rucaparib or vehicle | cell line | technical replicate |
| --- | --- | --- | --- | --- | --- |
| 56.5 | active | PRG3 | Rucaparib | OCI-P5x (serous) | 3 |
| 58.8 | active | PRG3 | Vehicle | OCI-C5x (clear cell) | 1 |
| 51.2 | active | PRG3 | Vehicle | OCI-C5x (clear cell) | 2 |
| 45.5 | active | PRG3 | Vehicle | OCI-C5x (clear cell) | 3 |
| 64.1 | active | PRG3 | Vehicle | OCI-P5x (serous) | 1 |
| 89.5 | inactive | PRG3 | Vehicle | OCI-P5x (serous) | 2 |
| 137 | inactive | PRG3 | Vehicle | OCI-P5x (serous) | 3 |
| 104 | inactive | RECQL5 | Rucaparib | OCI-C5x (clear cell) | 1 |
| 39.6 | active | RECQL5 | Rucaparib | OCI-C5x (clear cell) | 1 |
| 84.7 | inactive | RECQL5 | Rucaparib | OCI-C5x (clear cell) | 2 |
| 50.9 | active | RECQL5 | Rucaparib | OCI-C5x (clear cell) | 2 |
| 102 | inactive | RECQL5 | Rucaparib | OCI-C5x (clear cell) | 3 |

Additional reagents:
| viability, normalised (%) | activity call | Target gene | rucaparib or vehicle | cell line | technical replicate |
| --- | --- | --- | --- | --- | --- |
| 55.3 | active | FBXO5 | Rucaparib | OCI-C5x (clear cell) | 1 |
| 69.8 | active | FBXO5 | Rucaparib | OCI-C5x (clear cell) | 2 |
| 52.3 | active | FBXO5 | Rucaparib | OCI-C5x (clear cell) | 3 |
| 54 | active | FBXO5 | Rucaparib | OCI-P5x (serous) | 1 |
| 51.1 | active | FBXO5 | Rucaparib | OCI-P5x (serous) | 2 |
| 69.3 | active | FBXO5 | Rucaparib | OCI-P5x (serous) | 3 |
| 82.9 | inactive | FBXO5 | Vehicle | OCI-C5x (clear cell) | 1 |
| 62.9 | active | FBXO5 | Vehicle | OCI-C5x (clear cell) | 2 |
| 73.1 | active | FBXO5 | Vehicle | OCI-C5x (clear cell) | 3 |
| 61.1 | active | FBXO5 | Vehicle | OCI-P5x (serous) | 1 |
| 60 | active | FBXO5 | Vehicle | OCI-P5x (serous) | 2 |
| 65.2 | active | FBXO5 | Vehicle | OCI-P5x (serous) | 3 |
| 41.2 | active | PDE10A | Rucaparib | OCI-C5x (clear cell) | 1 |
| 44.7 | active | PDE10A | Rucaparib | OCI-C5x (clear cell) | 2 |
| 31.3 | active | PDE10A | Rucaparib | OCI-C5x (clear cell) | 3 |
| 50.4 | active | PDE10A | Rucaparib | OCI-P5x (serous) | 1 |
| 64.7 | active | PDE10A | Rucaparib | OCI-P5x (serous) | 2 |
| 64.9 | active | PDE10A | Rucaparib | OCI-P5x (serous) | 3 |
| 49 | active | PDE10A | Vehicle | OCI-C5x (clear cell) | 1 |
| 31.6 | active | PDE10A | Vehicle | OCI-C5x (clear cell) | 2 |
| 35.3 | active | PDE10A | Vehicle | OCI-C5x (clear cell) | 3 |
| 44.8 | active | PDE10A | Vehicle | OCI-P5x (serous) | 1 |
| 66 | active | PDE10A | Vehicle | OCI-P5x (serous) | 2 |
| 53.2 | active | PDE10A | Vehicle | OCI-P5x (serous) | 3 |
| 57.9 | active | CRAMP1 | Rucaparib | OCI-C5x (clear cell) | 1 |
| 65.9 | active | CRAMP1 | Rucaparib | OCI-C5x (clear cell) | 2 |
| 38 | active | CRAMP1 | Rucaparib | OCI-C5x (clear cell) | 3 |
| 86.9 | inactive | CRAMP1 | Rucaparib | OCI-P5x (serous) | 1 |
| 64.1 | active | CRAMP1 | Rucaparib | OCI-P5x (serous) | 2 |
| 73.4 | active | CRAMP1 | Rucaparib | OCI-P5x (serous) | 3 |
| 37.7 | active | CRAMP1 | Vehicle | OCI-C5x (clear cell) | 1 |
| 29.1 | active | CRAMP1 | Vehicle | OCI-C5x (clear cell) | 2 |
| 41.2 | active | CRAMP1 | Vehicle | OCI-C5x (clear cell) | 3 |
| 73.5 | active | CRAMP1 | Vehicle | OCI-P5x (serous) | 1 |
| 60 | active | CRAMP1 | Vehicle | OCI-P5x (serous) | 2 |
| 76.5 | active | CRAMP1 | Vehicle | OCI-P5x (serous) | 3 |
| 35.4 | active | SRPK3 | Rucaparib | OCI-C5x (clear cell) | 1 |
| 39.5 | active | SRPK3 | Rucaparib | OCI-C5x (clear cell) | 2 |
| 49.1 | active | SRPK3 | Rucaparib | OCI-C5x (clear cell) | 3 |
| 86.6 | inactive | SRPK3 | Rucaparib | OCI-P5x (serous) | 1 |
| 76.8 | active | SRPK3 | Rucaparib | OCI-P5x (serous) | 2 |
| 85.3 | inactive | SRPK3 | Rucaparib | OCI-P5x (serous) | 3 |
| 43.5 | active | SRPK3 | Vehicle | OCI-C5x (clear cell) | 1 |
| 39.3 | active | SRPK3 | Vehicle | OCI-C5x (clear cell) | 2 |
| 41.6 | active | SRPK3 | Vehicle | OCI-C5x (clear cell) | 3 |
| 75.7 | active | SRPK3 | Vehicle | OCI-P5x (serous) | 1 |
| 66.2 | active | SRPK3 | Vehicle | OCI-P5x (serous) | 2 |
| 79.8 | active | SRPK3 | Vehicle | OCI-P5x (serous) | 3 |
